Results reported in PubChem BioAssay AID504834 (National Center for Advancing Translational Sciences (NCATS), 2011).
About 22,000 (6.9%) of roughly 320,000 compounds were called active. The inconclusive results got no clear call from the source; some entries with a clear call stand among them for comparison. Calls follow the shape of the dose curve; as a rule, active = well fitted inhibition curve with a large enough effect; inconclusive = small, poorly fitted or top-dose-only effect, or another doubt; inactive = no such curve, though single readings can be large or run the other way. Potencies beside an inconclusive call are fits to weak or partial responses and may not hold up.

test: Primary qHTS for delayed death inhibitors of the malarial parasite plastid, 96 hour incubation; conditions: P. falciparum luciferase reporter growth; series mostly up to 28.7 µM; activity change, negative = inhibition: at the top concentration
Outline: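 Plates of compound plus infected erythrocytes (2% hematocrit, 0.05% parasitemia final) incubate 96 hours, 37 C, 5% CO2. Detection reagent added; reduced luminescence from the parasites' luciferase reporter flags inhibition.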
% is scaled to controls: 0 for no effect and ±100 for the full control effect; potency is read from the fitted curve at half-maximal effect.

| SMILES | Potency | activity change, negative = inhibition |
| --- | --- | --- |
| COCCCN1C(=O)C(O)=C(C(=O)c2ccco2)C1c1ccc(Br)cc1 (stereo not given) | inconclusive: 1.17 µM [inhibitor, full curve, poor fit] | – |
| COc1ccc(C(=O)/C=C(\C)NCc2ccc3c(c2)OCO3)cc1 | – | inactive: 10.9% |
| Cc1ccc(-c2nc(CN(C)C3CCOCC3)c(C)o2)s1 | inconclusive: 14.7 µM [inhibitor, single point] | – |
| COc1cccc(C(C(=O)NC(C)(C)C)N(Cc2ccc(C)cc2)C(=O)CCC(=O)Nc2cc(C)on2)c1OC (stereo not given) | inconclusive: 14.7 µM [inhibitor, partial curve, poor fit] | – |
| CCS(=O)(=O)c1ccc2oc(=O)c(/C=C(\O)c3ccc(Cl)cc3)nc2c1 | – | inactive: 4.16% |
| C/C(=N/NC(=O)c1ccc(-c2ccccc2)cc1)c1cccc(O)c1 | active: 5.86 µM | – |
| COc1ccc(Br)cc1C1N2CC3(C)CN1CC(C)(C2)C3=O (stereo not given) | – | inactive: 57.4% |
| Cc1cc(C(=O)N/N=C/c2ccc(-c3cccc(Cl)c3Cl)o2)n[nH]1 | – | inactive: 196% |
| CC1CC(C)(C)NC(=O)O1 (stereo not given) | inconclusive: 11.7 µM [inhibitor, single point] | – |
| COc1ccc(NC(=S)NCCc2c[nH]c3ccc(OC)cc23)c(OC)c1 | inconclusive: 13.1 µM [inhibitor, partial curve, poor fit] | – |
| Cc1nc(N[C@@H](Cc2c[nH]c3ccccc23)C(=O)O)c2oc3ccccc3c2n1 | inconclusive: 18.5 µM [inhibitor, single point] | – |
| CCOC(=O)N1CCc2[nH]c3ccc(C)cc3c2C1 | – | inactive: -17.5% |
| CN(C(=O)C1CCN(S(=O)(=O)c2cccs2)CC1)C1CCCCC1 | active: 1.65 µM | – |
| COc1cc(/C=N/NC(=O)c2c(-c3ccccc3)noc2C)cc(OC)c1OC | inconclusive: 18.5 µM [inhibitor, single point] | – |
| Cc1nn(Cc2ccccc2)c(C)c1CNC(=O)c1ccc(F)c(S(=O)(=O)N2CCOCC2)c1 | inconclusive: 9.28 µM [inhibitor, single point] | – |
| Cc1[nH]c2ccccc2c1C(=O)COc1ccccc1F | – | inactive: 25.3% |
| O=C(N/N=C/c1sc(=O)n(-c2ccccc2)c1Cl)c1ccncc1 | inconclusive: 11.7 µM [inhibitor, partial curve, poor fit] | – |
| CC(=O)OCC(=O)Nc1c(C)cc(C)cc1C | – | inactive: -10% |
| O=C(NC(=S)NCCCN1CCOCC1)c1cccc2ccccc12 | active: 6.57 µM | – |
| CCc1ccc(NC(=O)Nc2ccc3c(c2)N(C)C(=O)CS3)cc1 | inconclusive: 14.7 µM [inhibitor, single point] | – |
| Nc1n[nH]c(=S)n1/N=C1/C(=O)Nc2ccccc21 | – | inactive: 37.9% |
| COc1ccccc1NC(=O)CSc1nc2ccccc2nc1N1CC(C)OC(C)C1 (stereo not given) | inconclusive: 16.5 µM [inhibitor, single point] | – |
| CCOC(=O)Cc1csc(NS(=O)(=O)c2cc(Cl)ccc2Cl)n1 | – | inactive: -18.2% |
| Cc1ccc(S(=O)(=O)N(CC(=O)N2CCOCC2)c2ccccc2F)cc1 | inconclusive: 18.5 µM [inhibitor, single point] | – |

A second format for two compounds above:
SMILES	Potency	activity change, negative = inhibition
CC1CC(C)(C)NC(=O)O1 (stereo not given)	inconclusive: 11.7 µM [inhibitor, single point]	–
COc1ccc(NC(=S)NCCc2c[nH]c3ccc(OC)cc23)c(OC)c1	inconclusive: 13.1 µM [inhibitor, partial curve, poor fit]	–

Additional records:

| SMILES | Potency | activity change, negative = inhibition |
| --- | --- | --- |
| O=C(OCC1CC(c2ccccc2)=NO1)c1ccc(Br)cc1 (stereo not given) | – | inactive: 38.7% |
| Cc1ccc(NC(=O)CN(C)C(=O)/C=C/c2cccc(F)c2)cc1 | – | inactive: 0% |
| CSCc1cc(N(C)c2ccccc2)nc(-c2ccccc2)n1 | inconclusive: 10.4 µM [inhibitor, single point] | – |
| COc1ccc(C)cc1Nc1nc(N)c2ccccc2n1 | inconclusive: 14.7 µM [inhibitor, partial curve, poor fit] | – |
| COc1ccccc1N1CCN(c2ncnc3sc(C(=O)NCC4CCCO4)c(C)c23)CC1 (stereo not given) | inconclusive: 18.5 µM [inhibitor, single point] | – |
| C/C(CCC(=O)OC[C@H]1O[C@H](C#Cc2ccccc2)C=C[C@@H]1Oc1ccc(C)cc1)=N\OC[C@@H](O)[C@H]1O[C@@H]2OC(C)(C)O[C@@H]2[C@H]1O | active: 13.1 µM | – |
| COc1ccc(-c2cc(C(=O)N3CCN(C(=O)c4ccccc4F)CC3)[nH]n2)cc1 | inconclusive: 18.5 µM [inhibitor, single point] | – |
| C=C(C)CNC(=S)N=Nc1c(O)[nH]c2ccc([N+](=O)[O-])cc12 | inconclusive: 18.5 µM [inhibitor, single point] | – |
| Cn1c(=O)c(=O)n(C)c2cc(S(=O)(=O)N3CCCCCC3)ccc21 | inconclusive: 9.28 µM [inhibitor, partial curve, poor fit] | – |
| COc1cccc(C2c3c(oc4ccc(Cl)cc4c3=O)C(=O)N2c2cc(C)on2)c1OC (stereo not given) | active: 8.28 µM | – |
| NC(=O)c1ccccc1NCC(=O)c1ccc(F)cc1 | – | inactive: 37.5% |
| O=C(N/N=C/c1ccc(Br)s1)c1ccncc1 | inconclusive: 8.28 µM [inhibitor, partial curve, poor fit] | – |
| CC(=O)N(C)c1ccc(NC(=O)COc2ccc(Br)cc2C)cc1 | – | inactive: -3.3% |
| O=C1N[C@@H](Cc2ccccc2)[C@@H](c2ccco2)O1 | inconclusive: 18.5 µM [inhibitor, single point] | – |
| CCC1Nc2ncnc(N3CCCCC3)c2N(Cc2ccccc2)C1=O (stereo not given) | inconclusive: 18.5 µM [inhibitor, single point] | – |
| Cc1cccc(NC(=S)N(Cc2ccco2)C(C)c2cccs2)c1 (stereo not given) | inconclusive: 4.15 µM [inhibitor, single point] | – |
| COc1ccc(C(=O)NCCCNC(=O)c2ccc(C)nc2)cc1 | inconclusive: 7.38 µM [inhibitor, partial curve, poor fit] | – |
| O=C(Nc1ccc(OC(F)(F)F)cc1)C1CCCN(S(=O)(=O)c2cnc[nH]2)C1 (stereo not given) | inconclusive: 14.7 µM [inhibitor, single point] | – |
| CCOC(=O)c1c(C)[nH]c(C(=O)N/N=C/c2ccc(OC)c(OC)c2)c1C | inconclusive: 14.7 µM [inhibitor, single point] | – |
| CCOC(=O)Cc1csc(NC(=O)c2ccc([N+](=O)[O-])cc2[N+](=O)[O-])n1 | inconclusive: 18.5 µM [inhibitor, single point] | – |
| CN(NC1OC(=O)c2ccccc21)c1ccccc1[N+](=O)[O-] (stereo not given) | – | inactive: 7.35% |
| NC(=O)CCCn1c(C(=O)c2ccc(Cl)cc2)c2ccc([N+](=O)[O-])cc2[n+]1[O-] | inconclusive: 18.5 µM [inhibitor, single point] | – |
| Cc1ccc(N2NC(=O)/C(=C/C=C/c3ccco3)C2=O)cc1C | inconclusive: 9.28 µM [inhibitor, single point] | – |
| O=S(=O)(C/C(=C/CO)S(=O)(=O)c1ccccc1)c1ccccc1 | inconclusive: 18.5 µM [inhibitor, partial curve, poor fit] | – |

Three entries from above, arranged by formula weight, descending.

| SMILES | Potency | activity change, negative = inhibition |
| --- | --- | --- |
| CC(=O)N(C)c1ccc(NC(=O)COc2ccc(Br)cc2C)cc1 | – | inactive: -3.3% |
| C=C(C)CNC(=S)N=Nc1c(O)[nH]c2ccc([N+](=O)[O-])cc12 | inconclusive: 18.5 µM [inhibitor, single point] | – |
| NC(=O)c1ccccc1NCC(=O)c1ccc(F)cc1 | – | inactive: 37.5% |

The results go on:

| SMILES | Potency | activity change, negative = inhibition |
| --- | --- | --- |
| S=c1[nH]nc(COc2ccccc2)n1-c1ccccc1 | inconclusive: 18.5 µM [inhibitor, single point] | – |
| CCc1cccc(Oc2nn[nH]n2)c1 | inconclusive: 0.0026 µM [inhibitor, full curve, poor fit] | – |
| Cc1nc(C)c(C(=O)N2CCCC(CCC(=O)NCc3ccc(F)c(F)c3)C2)s1 (stereo not given) | active: 9.28 µM | – |
| O=C(Nc1cccc2ccccc12)c1nn(C23CC4CC(CC(C4)C2)C3)cc1[N+](=O)[O-] | active: 0.928 µM | – |
| CCn1c(SCC(=O)Nc2ccc(N(C)C)cc2)nnc1-c1ccco1 | – | inactive: 2.41% |
| COc1cc2c(cc1OC)C(c1ccccc1)=NCC2 | inconclusive: 9.28 µM [inhibitor, single point] | – |
| CCc1nonc1NC(=O)c1oc2ccc(F)cc2c1C | inconclusive: 10.4 µM [inhibitor, single point] | – |
| O=C(Nc1cccc(Cl)c1Cl)C1CCN(C(=O)c2cccs2)CC1 | – | inactive: 21.1% |
| COc1cc(OC)c2c(c1)OCC1CON(C)C21 (stereo not given) | inconclusive: 0.0415 µM [inhibitor, full curve, poor fit] | – |
| CCCCNS(=O)(=O)c1ccc2nc(SCC(=O)Nc3cccc(F)c3)[nH]c2c1 | – | inactive: 6.83% |
| CC1(C)CC(=O)C(C(=O)c2ccccc2)C(=O)C1 | inconclusive: 6.57 µM [inhibitor, partial curve] | – |
| O=C(Nc1cccc(Cl)c1)Nc1ccc(Br)cc1F | inconclusive: 18.5 µM [inhibitor, single point] | – |
| O=C(/C=C/c1ccccc1)Nc1ccc2c(c1)OCCO2 | inconclusive: 16.5 µM [inhibitor, single point] | – |
| COc1ccc(CNC(=O)[C@H](C)NC(=O)C2CCN(S(=O)(=O)c3ccc(F)cc3)CC2)cc1 | – | inactive: 20.1% |
| COc1ccc(OC)c(S(=O)(=O)NCCc2cn3ccsc3n2)c1 | – | inactive: -8.38% |
| CCOC(=O)c1c(NC(=O)CCS(=O)(=O)c2ccccc2)sc2c1CC(C)(C)NC2(C)C | inconclusive: 7.38 µM [inhibitor, partial curve, poor fit] | – |
| CCOc1ccc(NC(=O)N2CCC(NC(=O)C(Cc3ccccc3OC)NC(C)=O)CC2)cc1 (stereo not given) | – | inactive: 7.69% |
| COC(CNC(=O)c1cn(C)c2ccc(S(=O)(=O)N(C)C3CCCCC3)cc2c1=O)OC | inconclusive: 18.5 µM [inhibitor, single point] | – |
| Cc1c(Nc2cc(N3CCCCCC3)c3nonc3c2[N+](=O)[O-])c(=O)n(-c2ccccc2)n1C | inconclusive: 0.233 µM [inhibitor, partial curve, poor fit] | – |
| Cc1cc(C)n(CCCN2CCC(C(=O)Nc3cccc(-c4cccc(F)c4)c3)CC2)n1 | – | inactive: -0.106% |
| C=CCC1(N(C(C)=O)c2ccccc2)CCCCC1 | inconclusive: 10.4 µM [inhibitor, single point] | – |
| CCCCC[n+]1ccn(-c2nc3ccccc3nc2[N-]S(=O)(=O)c2ccc(C)cc2)c1 | inconclusive: 18.5 µM [inhibitor, single point] | – |
